From US20090252732A1
Results are given in words; binding and its absence hold for the method and conditions named. Some entries that bind do so weakly or less than the wild type.

Protein sequences, listed by entry. Tags and fused reporters are not part of them. Lines headed by an entry give the natural chain unless they say otherwise; changes in a name come on top.
UniProt Q6EBC2: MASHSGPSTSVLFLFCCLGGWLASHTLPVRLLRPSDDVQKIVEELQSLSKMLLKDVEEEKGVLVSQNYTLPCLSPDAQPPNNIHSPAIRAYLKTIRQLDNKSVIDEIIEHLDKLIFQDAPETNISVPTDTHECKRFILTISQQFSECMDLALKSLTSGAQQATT

Target: IL-31-CEE: purified, recombinant human IL-31 fused at the C-terminal with a peptide consisting of the sequence EYMPME, produced in BHK cells (human) (UniProt Q6EBC2)
Experiment: Western blot on denatured rIL31 (reduced and non-reduced)

binding: binds
B1: mouse anti-human IL-31 mAb from clone 294.144.3.5 (ATCC Patent Deposit Designation PTA-6873) (antibody, mouse IgG1, V domains shown)
VH: QVQLQQSGPELMKPGASVKISCKATGYTFSTYWIEWIKQRPGHGLEWIGEILPGRGTTNYNAKFQGKATFTAETSSNTAYMQLSSLTSEDSAVYYCTTESKLGDDDYWQGTTLTVSS
VL: ENVLTQSPAIMSASPGERVTMTCSASSSVSYMHWYQQKSSNSPKLWIYDTTKLASGVPGRFSGSGSGNSYSLTISSMEAEDVATYFCFQGSEHPLTFGGGTTLEI
